According to patent publication US20180170997A1 (NATIONAL CANCER CENTER, published 2018):
Results are given in words; binding and its absence hold for the method and conditions named. Some entries that bind do so weakly or less than the wild type.

Assays:
[1] = target: activation-inducible tumor necrosis factor receptor (AITR) on human T cells (human) (UniProt Q9Y5U5); assay: flow cytometry on stimulated PBMC subsets
[2] = target: T1, AITR on AITR-overexpressed Jurkat cells (CD5L-AITR-TM-ECD) (human) (UniProt Q9Y5U5); assay: flow cytometry, PE-conjugated mAb on AITR-overexpressed Jurkat cells (FIG. 1B)
T1 sequence (looked up): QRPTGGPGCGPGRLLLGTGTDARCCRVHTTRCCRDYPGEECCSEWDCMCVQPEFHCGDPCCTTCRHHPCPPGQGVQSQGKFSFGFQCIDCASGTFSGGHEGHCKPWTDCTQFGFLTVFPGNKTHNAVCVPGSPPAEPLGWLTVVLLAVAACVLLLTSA

[3] = target: activation-inducible tumor necrosis factor receptor (AITR) on human T cells (human) (UniProt Q9Y5U5); assay: flow cytometry on anti-CD3/IL-2-activated CD4+ T cells (FIG. 1D)
[4] = target: T1, AITR on AITR-overexpressed Jurkat cells (CD5L-AITR-TM-ECD) (human); assay: flow cytometry on AITR-overexpressed Jurkat cells

Measured: binding

B1: anti-AITR mAb B62 (antibody, V domains shown)
VH: EVQLVQSGGGLVQPGGSLRLSCSASGFSFSSYAMHWVRQAPGKGLEYVSGISDNGGSTKYADSVKGRFTISRDNSQNTLYLQMSSLRSEDTAVYYCARGGPTYYDFWSGYYTDEDAFDIWGQGTLVTVSS
VL: EIVMTQSPSSLSASVGDRVTITCRASQSINNYLNWYQQKPGKAPKLLIYATSRLQSGVPSRFSGSGSGADLTLTISSLQPEDVATYYCQQSYSFPWTFGQGTKVEIK
binds: [1] | [2] | [3] | [4]
